{"source": "patent US12171740B2", "about": "“Compositions and methods for treating allergic inflammatory conditions” (CHILDREN'S HOSPITAL MEDICAL CENTER, priority 2016, dated 2024)", "tested_on": "SPINK7-depleted EPC2 cells", "assay": "IL-8 protein in supernatants of SPINK7-depleted EPC2 cells during ALI differentiation", "type": "cell-based, human", "details": "treated during ALI differentiation", "note": "At least one structure is not confirmed: it was looked up by name or label, or the drawing left a doubt.", "data": [{"smiles": "C=CC[C@@H]1/C=C(\\C)C[C@H](C)C[C@H](OC)[C@H]2O[C@@](O)(C(=O)C(=O)N3CCCC[C@H]3C(=O)O[C@H](/C(C)=C/[C@@H]3CC[C@@H](O)[C@H](OC)C3)[C@H](C)[C@@H](O)CC1=O)[C@H](C)C[C@@H]2OC", "note": "[FK506]", "values": [{"measurement": "IL-8 release", "result": "blocked"}]}]}
